Hit rate of the full screen: of about 340,000 compounds, about 170 (0.05%) were called active. The shares of active, inactive and inconclusive entries below differ from those in the screen. The call rests on the fitted dose curve; in most records, active means well fitted inhibition curve with a large enough effect in the signal ratio, with a control signal flat (not every such curve was filed as active); inconclusive means small, poorly fitted or top-dose-only effect, or effect the other way, or a change in a side signal; inactive means flat fitted curve, though single readings scatter; the % refers to the signal ratio. A potency beside an inconclusive call is a rough fit, not a confirmed value.
Experiment: qHTS Assay to Find Inhibitors of Chronic Active B-Cell Receptor Signaling;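 on activity change, negative = inhibition: plate controls were basal doxycycline-induced cells for no effect and cells given 10 µM MG132 for full effect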
Settings: ABC-DLBCL IkBa-CBG/CBR reporter, luminescence ratio (green luciferase fused to IkBa over red control in TMD8 lymphoma cells), 4 h; activity change, negative = inhibition: at 46.1 µM (top of the series)
Procedure, shortened: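 Compounds up to 46 uM were incubated four hours with TMD8 cells whose green CBG68 luciferase is fused to IkappaBalpha; red CBR luminescence normalised the signal, and concentration-effect curves were fitted to fusion, red and ratio data.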
Potency means the concentration at half of the fitted maximal effect.

**Q.** Which activity change, negative = inhibition does the source give for `CCCONC(=O)Nc1ccccc1[N+](=O)[O-]` here?
**A.** inconclusive: -13.3%

**Q.** Which “activity change, negative = inhibition” value does the source give for `Cc1ccc(OCC(=O)NS(=O)(=O)c2ccc(Cl)cc2)cc1` here?
**A.** inactive: 3.69%

**Q.** Which “activity change, negative = inhibition” value does the source give for `COc1ccc(-c2cc(OC)c3ccccc3n2)cc1` here?
**A.** inactive: -0.268%

**Q.** With `O=[N+]([O-])c1cccc(S(=O)(=O)Nc2ccc(Cc3ccncc3)cc2)c1` as the molecule, how does the activity change, negative = inhibition read?
**A.** inconclusive: -13%

**Q.** With `COC(C(=O)Nc1ccnn1C1CCN(Cc2ccccn2)CC1)c1ccccc1` (stereo unspecified) as the molecule, how does the activity change, negative = inhibition read?
**A.** inconclusive: -1.16%

**Q.** Which Potency does the source give for `CC(C)Sc1nc(SCC(=O)O)c2c3c(sc2n1)COC(C)(C)C3` here?
**A.** inconclusive: 20 µM [falling, partial curve, poor fit]

**Q.** Which activity change, negative = inhibition does the source give for `Cc1cc(C(=O)N[C@H](c2ccccc2)[C@@]2(C)C[C@@H]2[C@@H](C)C(=O)Nc2ccc3ccccc3c2)n(C)n1` here?
**A.** inconclusive: -0.169%

**Q.** For `CC(=O)OCC(=O)[C@@]12OC(C)(C)O[C@@H]1C[C@H]1[C@@H]3C[C@H](F)C4=CC(=O)C=C[C@]4(C)[C@@]3(F)[C@@H](O)C[C@@]12C`, which activity change, negative = inhibition is on record?
**A.** inconclusive: -12%

**Q.** For `CS(=O)(=O)N(CC(=O)N1CCCC1)c1ccc(Cl)c(Cl)c1`, which Potency is on record?
**A.** inconclusive: 0.116 µM [falling, full curve, poor fit]

**Q.** For `N=c1c2c(-c3ccccc3)c(-c3ccccc3)n(Cc3ccco3)c2ncn1Cc1ccccc1`, which activity change, negative = inhibition is on record?
**A.** inconclusive: 19.6%

**Q.** For `O=C(CCS(=O)(=O)Cc1ccccc1)Nc1nncs1`, which “activity change, negative = inhibition” value is on record?
**A.** inactive: -7.56%

**Q.** Which Potency does the source give for `COC(=O)c1ccc(CNC(=O)COC(=O)/C=C/c2ccc(O)c(OC)c2)cc1` here?
**A.** inconclusive: 29.1 µM [falling, partial curve, poor fit]

**Q.** For `CNC(=S)N(CCc1c(C)[nH]c2ccccc12)Cc1cccnc1`, which “activity change, negative = inhibition” value is on record?
**A.** inactive: 1.57%

**Q.** For `CC(=O)c1cc(-c2ccc(F)cc2)n(CCC(=O)Nc2nc3c(C)cccc3s2)c1C`, which “activity change, negative = inhibition” value is on record?
**A.** inactive: 10.6%

**Q.** With `COc1ccc(/C=C\c2cc(OC)c(OC)cc2CC[N+](C)(C)C)cc1OC` as the molecule, how does the activity change, negative = inhibition read?
**A.** inconclusive: -13.3%

**Q.** With `O=C(COC(=O)C1C2CC3OC(=O)C1C3C2)Nc1cccc(Cl)c1` (stereo unspecified) as the molecule, how does the “activity change, negative = inhibition” value read?
**A.** inactive: 3.77%

**Q.** For `Cc1cc(OCCN2CCOCC2)ccc1C(C)C`, which “activity change, negative = inhibition” value is on record?
**A.** inactive: 3.93%

**Q.** With `O=C(NCc1ccccc1Cl)c1cc2c(s1)CS(=O)(=O)C2` as the molecule, how does the “activity change, negative = inhibition” value read?
**A.** inactive: 1.03%

**Q.** With `COC(=O)C1=CO[C@@H](C)[C@H]2CN3CCc4c([nH]c5ccccc45)[C@@H]3C[C@H]12` as the molecule, how does the Potency read?
**A.** inconclusive: 29.1 µM [falling, single point]

**Q.** For `Cc1c(C)n(C(=O)CSc2nccn2C)c2ccccc12`, which Potency is on record?
**A.** inconclusive: 35.5 µM [falling, partial curve, poor fit]

**Q.** With `Cc1ccc(/C=C/C(=O)OCC(=O)N2CC(=O)Nc3ccccc32)o1` as the molecule, how does the activity change, negative = inhibition read?
**A.** inconclusive: 14.7%

— PubChem BioAssay AID493014 (National Center for Advancing Translational Sciences (NCATS), 2011)
